Experimental data: the supplement of paper PMC10849652
The list shows a part of the results. Residues, ends and D or L forms follow the SMILES beside them. *: point of attachment. Cbz = O=C(OCc1ccccc1)*

Chains of the proteins cited; added tags and fusions are not shown. Lines headed by an entry give the natural chain unless they say otherwise; changes in a name come on top.
UniProt O00716: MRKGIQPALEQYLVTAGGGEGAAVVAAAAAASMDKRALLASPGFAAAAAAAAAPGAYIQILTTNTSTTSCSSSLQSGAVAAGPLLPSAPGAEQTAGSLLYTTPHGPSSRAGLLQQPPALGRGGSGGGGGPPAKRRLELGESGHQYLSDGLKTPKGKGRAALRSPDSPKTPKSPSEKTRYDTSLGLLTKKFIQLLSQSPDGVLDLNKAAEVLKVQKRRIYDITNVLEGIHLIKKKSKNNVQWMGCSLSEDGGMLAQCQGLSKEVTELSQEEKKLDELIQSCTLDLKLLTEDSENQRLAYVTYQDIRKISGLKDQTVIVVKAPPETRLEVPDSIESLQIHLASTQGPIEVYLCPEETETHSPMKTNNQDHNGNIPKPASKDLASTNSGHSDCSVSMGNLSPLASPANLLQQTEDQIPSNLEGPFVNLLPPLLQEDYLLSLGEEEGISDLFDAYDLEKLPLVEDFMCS
UniProt Q13409, whole entry, looked up: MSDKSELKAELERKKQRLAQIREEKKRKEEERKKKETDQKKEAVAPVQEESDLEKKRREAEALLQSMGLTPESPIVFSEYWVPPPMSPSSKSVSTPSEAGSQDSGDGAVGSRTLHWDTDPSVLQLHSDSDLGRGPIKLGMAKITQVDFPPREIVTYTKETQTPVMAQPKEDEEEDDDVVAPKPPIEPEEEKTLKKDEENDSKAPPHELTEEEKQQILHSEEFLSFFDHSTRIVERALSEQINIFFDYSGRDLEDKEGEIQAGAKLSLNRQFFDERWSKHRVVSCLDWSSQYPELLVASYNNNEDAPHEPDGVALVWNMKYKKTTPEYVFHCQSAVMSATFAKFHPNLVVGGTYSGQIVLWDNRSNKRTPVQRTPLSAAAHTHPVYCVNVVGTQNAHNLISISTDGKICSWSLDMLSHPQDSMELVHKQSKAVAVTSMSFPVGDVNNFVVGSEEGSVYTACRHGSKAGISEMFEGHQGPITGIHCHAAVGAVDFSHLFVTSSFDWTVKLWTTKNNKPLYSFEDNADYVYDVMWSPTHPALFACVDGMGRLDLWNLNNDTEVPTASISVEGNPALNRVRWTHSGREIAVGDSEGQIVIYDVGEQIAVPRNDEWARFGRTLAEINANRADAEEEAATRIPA
UniProt Q56P03: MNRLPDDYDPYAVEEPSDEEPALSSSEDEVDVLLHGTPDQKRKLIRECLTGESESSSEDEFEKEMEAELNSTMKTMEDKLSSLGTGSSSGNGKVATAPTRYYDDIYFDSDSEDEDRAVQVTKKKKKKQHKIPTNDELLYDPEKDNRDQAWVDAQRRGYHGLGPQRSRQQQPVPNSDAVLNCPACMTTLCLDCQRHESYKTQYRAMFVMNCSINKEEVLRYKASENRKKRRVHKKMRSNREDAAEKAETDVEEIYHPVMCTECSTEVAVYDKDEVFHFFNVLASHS
UniProt Q5QJE6: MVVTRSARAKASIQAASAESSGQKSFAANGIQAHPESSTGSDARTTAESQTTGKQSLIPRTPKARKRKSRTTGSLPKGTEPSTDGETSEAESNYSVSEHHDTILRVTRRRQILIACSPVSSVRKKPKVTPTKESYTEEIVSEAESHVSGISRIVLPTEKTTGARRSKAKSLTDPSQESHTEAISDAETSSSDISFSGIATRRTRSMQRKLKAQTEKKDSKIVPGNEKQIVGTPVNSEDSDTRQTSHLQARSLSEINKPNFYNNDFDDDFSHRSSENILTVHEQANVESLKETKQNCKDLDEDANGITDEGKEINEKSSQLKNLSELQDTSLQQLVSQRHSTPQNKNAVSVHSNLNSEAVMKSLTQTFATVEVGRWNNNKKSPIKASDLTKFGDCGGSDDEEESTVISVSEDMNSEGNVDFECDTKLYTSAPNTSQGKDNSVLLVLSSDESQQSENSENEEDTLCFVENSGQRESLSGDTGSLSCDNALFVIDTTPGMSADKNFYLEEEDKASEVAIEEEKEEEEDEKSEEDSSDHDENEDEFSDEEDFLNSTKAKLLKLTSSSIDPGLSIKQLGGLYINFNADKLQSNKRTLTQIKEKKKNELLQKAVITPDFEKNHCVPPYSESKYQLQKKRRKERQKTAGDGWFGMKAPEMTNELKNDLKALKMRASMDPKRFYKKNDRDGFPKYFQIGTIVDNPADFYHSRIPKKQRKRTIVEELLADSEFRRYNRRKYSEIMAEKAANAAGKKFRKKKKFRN
UniProt Q86YN1: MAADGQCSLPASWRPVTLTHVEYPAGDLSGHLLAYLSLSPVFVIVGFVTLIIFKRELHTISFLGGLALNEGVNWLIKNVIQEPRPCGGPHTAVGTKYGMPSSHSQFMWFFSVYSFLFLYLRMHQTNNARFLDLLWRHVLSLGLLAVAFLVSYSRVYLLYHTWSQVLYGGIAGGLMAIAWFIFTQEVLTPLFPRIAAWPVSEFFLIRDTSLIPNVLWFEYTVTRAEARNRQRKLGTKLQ
UniProt Q9H410: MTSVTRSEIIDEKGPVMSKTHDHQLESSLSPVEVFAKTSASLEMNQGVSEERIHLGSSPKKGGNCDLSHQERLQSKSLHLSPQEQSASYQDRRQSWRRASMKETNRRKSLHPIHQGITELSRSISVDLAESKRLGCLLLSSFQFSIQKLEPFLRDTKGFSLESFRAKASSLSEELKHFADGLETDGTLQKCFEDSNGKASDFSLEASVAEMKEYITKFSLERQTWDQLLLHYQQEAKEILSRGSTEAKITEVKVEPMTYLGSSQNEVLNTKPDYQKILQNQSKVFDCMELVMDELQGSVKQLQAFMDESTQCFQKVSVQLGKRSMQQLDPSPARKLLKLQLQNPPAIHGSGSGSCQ
UniProt Q96FN9: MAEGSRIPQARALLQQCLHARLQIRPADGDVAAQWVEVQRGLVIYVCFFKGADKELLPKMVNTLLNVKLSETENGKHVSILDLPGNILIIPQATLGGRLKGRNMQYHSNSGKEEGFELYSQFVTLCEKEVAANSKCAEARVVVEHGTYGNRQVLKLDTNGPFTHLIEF
UniProt P50570: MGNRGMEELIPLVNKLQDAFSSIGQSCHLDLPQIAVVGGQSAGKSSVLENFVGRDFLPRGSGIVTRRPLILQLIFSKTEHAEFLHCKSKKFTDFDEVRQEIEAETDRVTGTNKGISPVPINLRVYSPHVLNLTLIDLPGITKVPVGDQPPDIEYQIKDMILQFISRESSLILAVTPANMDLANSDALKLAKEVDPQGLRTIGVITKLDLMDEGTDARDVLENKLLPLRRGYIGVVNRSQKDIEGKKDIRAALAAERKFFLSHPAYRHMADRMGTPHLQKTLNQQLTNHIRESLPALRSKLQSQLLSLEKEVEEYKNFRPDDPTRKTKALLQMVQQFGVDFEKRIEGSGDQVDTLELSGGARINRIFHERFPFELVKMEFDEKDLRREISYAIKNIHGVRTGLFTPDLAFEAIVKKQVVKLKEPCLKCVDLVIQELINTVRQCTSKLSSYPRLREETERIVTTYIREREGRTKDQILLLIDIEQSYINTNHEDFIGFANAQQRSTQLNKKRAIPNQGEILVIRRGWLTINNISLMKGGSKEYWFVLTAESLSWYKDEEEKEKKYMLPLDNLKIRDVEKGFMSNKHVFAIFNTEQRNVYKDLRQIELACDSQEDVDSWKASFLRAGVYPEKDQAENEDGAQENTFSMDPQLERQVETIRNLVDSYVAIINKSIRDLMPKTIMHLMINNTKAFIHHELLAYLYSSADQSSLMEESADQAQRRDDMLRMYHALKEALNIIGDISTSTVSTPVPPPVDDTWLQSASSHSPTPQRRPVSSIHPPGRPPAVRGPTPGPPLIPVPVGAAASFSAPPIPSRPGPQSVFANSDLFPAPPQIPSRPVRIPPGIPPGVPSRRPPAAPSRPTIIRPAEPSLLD
UniProt Q8NBA8: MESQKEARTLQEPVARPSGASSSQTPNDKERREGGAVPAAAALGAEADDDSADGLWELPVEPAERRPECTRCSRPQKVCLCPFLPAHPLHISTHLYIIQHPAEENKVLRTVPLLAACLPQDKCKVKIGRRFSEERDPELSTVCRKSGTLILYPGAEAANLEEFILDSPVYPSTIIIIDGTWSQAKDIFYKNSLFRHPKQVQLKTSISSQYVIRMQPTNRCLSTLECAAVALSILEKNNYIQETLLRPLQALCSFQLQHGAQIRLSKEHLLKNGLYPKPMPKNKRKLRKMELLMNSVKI
UniProt Q99956: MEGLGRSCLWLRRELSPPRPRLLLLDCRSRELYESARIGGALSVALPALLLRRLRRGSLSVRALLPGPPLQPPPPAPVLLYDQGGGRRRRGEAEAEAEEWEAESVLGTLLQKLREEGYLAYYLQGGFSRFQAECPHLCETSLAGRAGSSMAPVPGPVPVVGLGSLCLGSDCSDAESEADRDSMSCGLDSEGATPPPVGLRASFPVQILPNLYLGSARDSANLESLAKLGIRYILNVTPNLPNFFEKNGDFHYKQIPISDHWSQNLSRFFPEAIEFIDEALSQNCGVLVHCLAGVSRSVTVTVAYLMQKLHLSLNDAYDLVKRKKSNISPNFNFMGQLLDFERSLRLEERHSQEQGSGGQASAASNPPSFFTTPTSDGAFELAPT
UniProt Q6P3W2: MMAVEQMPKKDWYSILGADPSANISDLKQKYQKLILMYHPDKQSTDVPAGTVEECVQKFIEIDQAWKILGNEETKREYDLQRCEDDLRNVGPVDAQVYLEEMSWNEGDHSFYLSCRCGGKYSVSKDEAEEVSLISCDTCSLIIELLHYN
UniProt Q96LL9: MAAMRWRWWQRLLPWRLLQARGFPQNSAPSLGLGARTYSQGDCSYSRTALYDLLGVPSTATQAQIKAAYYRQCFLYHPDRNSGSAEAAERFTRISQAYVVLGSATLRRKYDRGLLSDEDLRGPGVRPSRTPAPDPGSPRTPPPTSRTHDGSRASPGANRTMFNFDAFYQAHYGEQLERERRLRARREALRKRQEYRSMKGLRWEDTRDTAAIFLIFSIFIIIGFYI
UniProt Q96DC8: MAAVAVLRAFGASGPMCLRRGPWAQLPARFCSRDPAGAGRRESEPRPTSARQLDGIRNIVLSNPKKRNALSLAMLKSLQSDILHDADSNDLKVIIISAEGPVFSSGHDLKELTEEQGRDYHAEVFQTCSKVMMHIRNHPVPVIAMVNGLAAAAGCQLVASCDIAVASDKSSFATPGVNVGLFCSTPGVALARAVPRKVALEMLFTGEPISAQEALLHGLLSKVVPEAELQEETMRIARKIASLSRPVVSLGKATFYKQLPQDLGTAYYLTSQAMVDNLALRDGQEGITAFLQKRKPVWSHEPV
UniProt Q7RTS9: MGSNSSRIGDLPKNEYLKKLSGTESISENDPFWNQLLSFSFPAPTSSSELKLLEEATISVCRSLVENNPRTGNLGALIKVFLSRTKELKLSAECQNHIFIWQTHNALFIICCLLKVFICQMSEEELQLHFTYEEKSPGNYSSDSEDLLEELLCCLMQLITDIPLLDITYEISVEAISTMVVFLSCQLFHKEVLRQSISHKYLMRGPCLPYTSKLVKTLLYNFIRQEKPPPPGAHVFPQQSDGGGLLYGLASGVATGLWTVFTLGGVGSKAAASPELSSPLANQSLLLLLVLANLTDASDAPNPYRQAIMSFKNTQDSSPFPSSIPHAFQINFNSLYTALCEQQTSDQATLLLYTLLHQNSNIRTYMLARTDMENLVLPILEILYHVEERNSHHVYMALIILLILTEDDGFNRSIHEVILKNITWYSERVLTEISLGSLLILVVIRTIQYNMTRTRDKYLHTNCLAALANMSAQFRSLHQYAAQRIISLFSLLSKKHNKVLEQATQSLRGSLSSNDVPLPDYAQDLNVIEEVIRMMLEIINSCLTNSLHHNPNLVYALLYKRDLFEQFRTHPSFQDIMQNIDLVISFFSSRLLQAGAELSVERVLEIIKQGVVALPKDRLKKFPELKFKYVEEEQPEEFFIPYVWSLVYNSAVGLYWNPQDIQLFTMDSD
UniProt Q9NYP3: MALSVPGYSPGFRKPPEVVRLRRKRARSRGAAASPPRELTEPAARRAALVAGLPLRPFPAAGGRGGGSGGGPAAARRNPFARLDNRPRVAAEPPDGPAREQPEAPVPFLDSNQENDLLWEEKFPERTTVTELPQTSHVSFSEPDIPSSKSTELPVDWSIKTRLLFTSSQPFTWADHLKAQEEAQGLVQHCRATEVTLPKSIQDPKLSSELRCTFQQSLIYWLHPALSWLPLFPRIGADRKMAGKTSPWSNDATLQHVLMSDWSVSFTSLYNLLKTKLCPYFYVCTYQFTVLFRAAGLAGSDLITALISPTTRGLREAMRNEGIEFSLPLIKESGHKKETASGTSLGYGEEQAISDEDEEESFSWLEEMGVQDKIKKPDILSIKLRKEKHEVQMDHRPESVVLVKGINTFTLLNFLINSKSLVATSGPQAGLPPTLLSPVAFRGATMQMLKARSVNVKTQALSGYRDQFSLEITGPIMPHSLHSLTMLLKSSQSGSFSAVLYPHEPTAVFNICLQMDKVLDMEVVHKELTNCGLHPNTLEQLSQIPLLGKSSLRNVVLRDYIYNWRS
UniProt Q4LDG9: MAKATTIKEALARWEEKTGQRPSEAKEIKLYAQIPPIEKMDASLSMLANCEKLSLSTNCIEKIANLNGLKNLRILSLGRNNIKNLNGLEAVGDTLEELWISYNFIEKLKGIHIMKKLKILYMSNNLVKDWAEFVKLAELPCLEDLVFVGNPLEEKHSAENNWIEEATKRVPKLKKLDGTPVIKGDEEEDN

Compound: CC(C)C1=C2N=C(C=C(N2N=C1)NCC3=CC=CC=C3)NCCCCCCN
Experiment: log2 fold change, soluble protein after heating vs DMSO (PISA); higher = thermal stabilisation; K562 cells, 10 uM, 30 min; active = over 0.2 and 3.5 SD of the protein, either way, in both replicates (recomputed)
Method in brief: (§1)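 For each measurement, 10 μM compound was applied for 30 min to K562 cells at 2×10^6 cells/mL. Aliquots were heated for 3 min across 48°C-58°C, pooled, and extracted in PBS with 0.5% NP-40 at 4°C; the supernatant after 21,000xg for 90 min was soluble protein. This was quantified by TMTpro 16plex LC-MS/MS with channel sums equalised, and thermal stability was reported relative to control samples from duplicates, on a log2 fold-change scale.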

log2 fold change, inactive:
E2F3 (UniProt O00716) -0.161
DYNC1I2 isoform 2 (UniProt Q13409) -0.105
ECD isoform 3 (UniProt O95905) -0.192
EAPP (UniProt Q56P03) 0.017
DNTTIP2 (UniProt Q5QJE6) -0.234
DOCK8 (UniProt Q8NF50) 0.152
DOLPP1 (UniProt Q86YN1) -0.045
DNPEP (UniProt B9ZVU2) 0.132
DSN1 (UniProt Q9H410) -0.106
DNAJC25 (UniProt Q9H1X3) -0.71
DTD2 (UniProt Q96FN9) 0.134
DNAJC16 (UniProt Q9Y2G8) -0.074
DNM2 isoform 4 (UniProt P50570) -0.047
DYRK1A isoform 2 (UniProt Q13627) -0.254
DYNLT1 (UniProt P63172) 0.049
DNM1L isoform 2 (UniProt O00429) 0.08
DTWD2 (UniProt Q8NBA8) -0.179
DUSP9 (UniProt Q99956) 0.038
DPH3 (UniProt Q96FX2) 0.097
DOK1 (UniProt Q99704) -0.032
DNAJC24 (UniProt Q6P3W2) -0.037
DPYSL2 (UniProt Q16555) 0.066
DNAJC30 (UniProt Q96LL9) -0.108
ECHDC3 (UniProt Q96DC8) 0.195
DYM (UniProt Q7RTS9) -0.227
DNPEP (UniProt C9JBE1) -0.006

Compound: CC(C)C[C@@H](C=O)NC(=O)[C@H](CC(C)C)NC(=O)[C@H](CC(C)C)NC(=O)OCc1ccccc1
Experiment: as above
Method in brief: as §1

log2 fold change, inactive:
DOP1B (UniProt Q9Y3R5) -0.023
E2F3 (UniProt O00716) 0.134
DYNC1I2 isoform 2 (UniProt Q13409) 0.154
ECD isoform 3 (UniProt O95905) 0.053
E4F1 (UniProt Q66K89) -0.004
EAPP (UniProt Q56P03) 0.021
DNTTIP2 (UniProt Q5QJE6) 0.046
DOCK8 (UniProt Q8NF50) 0.274
DOLPP1 (UniProt Q86YN1) -0.154
DSN1 (UniProt Q9H410) 0.004
DNM2 isoform 4 (UniProt P50570) -0.04
DYRK1A isoform 2 (UniProt Q13627) 0.064
DYNLT1 (UniProt P63172) 0.036
DNM1L isoform 2 (UniProt O00429) 0.043
DTWD2 (UniProt Q8NBA8) 0.003
DUSP9 (UniProt Q99956) -0.013
DOCK10 (UniProt Q96BY6) -0.036
DONSON (UniProt Q9NYP3) 0.161
DNAJC24 (UniProt Q6P3W2) 0.058
ECHDC3 (UniProt Q96DC8) -0.042
DNAL1 (UniProt Q4LDG9) 0.007
DYM (UniProt Q7RTS9) 0.023
